Source: patent publication US20220227848A1 (NORDIC BIOSCIENCE A S, published 2022)
Results are given in words; binding and its absence hold for the method and conditions named. Some results given as binding are weak or reduced against the parent protein; the word gives no strength.

Amino acid sequences for entries named in this document (tags omitted). Residues count along the entry.
UniProt Q86Y22, residues 57-540: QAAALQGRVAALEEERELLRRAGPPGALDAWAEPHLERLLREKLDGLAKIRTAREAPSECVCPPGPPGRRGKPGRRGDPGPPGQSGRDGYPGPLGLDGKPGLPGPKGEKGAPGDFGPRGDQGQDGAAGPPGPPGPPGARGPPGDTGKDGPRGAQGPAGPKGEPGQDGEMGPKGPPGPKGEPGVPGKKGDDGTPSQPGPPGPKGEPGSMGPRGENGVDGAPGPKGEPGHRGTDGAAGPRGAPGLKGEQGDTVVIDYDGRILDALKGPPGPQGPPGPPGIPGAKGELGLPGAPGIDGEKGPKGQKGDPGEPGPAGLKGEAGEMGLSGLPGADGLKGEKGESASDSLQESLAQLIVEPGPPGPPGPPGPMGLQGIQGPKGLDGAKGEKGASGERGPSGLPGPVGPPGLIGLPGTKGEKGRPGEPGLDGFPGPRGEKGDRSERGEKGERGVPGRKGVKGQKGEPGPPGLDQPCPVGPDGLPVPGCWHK

Biological target: recombinant human type XXIII collagen ectodomain (R&D system, 4165-CL) (human) (UniProt Q86Y22)
Assay: Western blot, reducing SDS-PAGE, 1 µg/ml 10F6 as primary antibody

binding: binds
B1: monoclonal antibody 10F6 (antibody, mouse IgG2b, kappa, V domains shown)
VH: EVKLVESGGGLVKPGGSLKLSCAASGFTFSSYAMSWVRQTPEKRLAWVASISTAGRTYYPDTVRGRITISRDNARNILYLQMSSLRSEDTAIYYCARPDYDYDGYINWGQGTLVTVSA
VL: DIVMTQAAFSNPVTLGTSAYISCRSSKSLLHSNGVTYLYWYLQKPGQSPQLLIYQMSNLASGVPDRFSSSGSGTDFTLRISRVEAEDVGVYYCAQNLELPLTFGAGTKLELKR
notes: Mouse (Balb/C) hybridoma antibody purified on an IgG column; also called PRO-C23 antibody 10F6; PRO-C23 antibody
